PubChem BioAssay AID1159584 | Peter MacCallum Cancer Centre | 2016

- Assay: 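Genes that CDH1-null MCF10A cells selectively depend on to survive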 (primary screen)
- Cell system: human MCF10A breast epithelial cells, parental and CDH1-null
- Reagents: siRNA against human genes
- Measured: 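Cell viability by CellTiter-Glo ATP luminescence, each line scaled to the mean of mock wells across plates, then CDH1-null over parental ratio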
- Scale: CDH1-null / parental viability ratio: higher = CDH1-null cells survive relatively better than parental
In all, the deposit lists about 18,000 reagents; below is a random part of them. Further read-outs or replicates are left out here. Reagent sequences are not shown. Not stated in the record: the amount of reagent, the time to read-out.

gene knocked down | CDH1-null / parental viability ratio
TMED2 (GeneID 10959) | 0.84
MCTP2 (GeneID 55784) | 0.83
RHOBTB2 (GeneID 23221) | 1
TWIST2 (GeneID 117581) | 1.04
OPN4 (GeneID 94233) | 1.34
TMEM139 (GeneID 135932) | 1.04
SHISA2 (GeneID 387914) | 0.76
KIF9 (GeneID 64147) | 1.15
NFU1 (GeneID 27247) | 1.08
LGALS3 (GeneID 3958) | 0.93
ZCCHC7 (GeneID 84186) | 0.96
CLEC18A (GeneID 348174) | 0.59
SNRPN (GeneID 6638) | 0.95
SEC11C (GeneID 90701) | 0.9
HELZ2 (GeneID 85441) | 0.99
OR4D5 (GeneID 219875) | 0.96
STK36 (GeneID 27148) | 1.32
ZNF689 (GeneID 115509) | 1.01
PTBP2 (GeneID 58155) | 1
ZFAND4 (GeneID 93550) | 1.47
LCP2 (GeneID 3937) | 1.3
KLHL42 (GeneID 57542) | 0.76
ADAM23 (GeneID 8745) | 1.25
RFPL4B (GeneID 442247) | 1.01
LINC00207 (GeneID 388910) | 0.81
KLHDC10 (GeneID 23008) | 1.02
PPP2R1B (GeneID 5519) | 1.36
PAK5 (GeneID 57144) | 1.1
